Results deposited as PubChem BioAssay AID1259425 (University of Nebraska Medical Center, 2018).
The deposit covers about 14,000 reagents; below is a part drawn at random. Not all columns of the deposit are shown. The record does not give: the time to read-out.

- Test: 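Seek colon cancer weak points whose silencing resembles KSR1 loss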 (primary screen)
- Cell system: HCT116 human colon cancer cells
- Knock-down reagent: siRNA pool against human genes, 50 nM siRNA
- Measured: 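mRNA of six signature genes measured together by branched-DNA assay after 50 nM siRNA pool, blank removed, divided by geometric mean of two housekeeping genes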
- Direction: BNIP3L mRNA: higher = more BNIP3L transcript after knockdown; NDRG1 mRNA: higher = more NDRG1 transcript after knockdown

PCDHA6 | BNIP3L mRNA, set 1 = 0.0652; NDRG1 mRNA, set 1 = 0.0636
SMARCD2 | BNIP3L mRNA, set 1 = 0.0871; NDRG1 mRNA, set 1 = 0.133
DERL2 | BNIP3L mRNA, set 1 = 0.272; NDRG1 mRNA, set 1 = 0.78
OR10H2 | BNIP3L mRNA, set 1 = 0.131; NDRG1 mRNA, set 1 = 0.135
TAAR9 | BNIP3L mRNA, set 1 = 0.14; NDRG1 mRNA, set 1 = 0.092
SALL1 | BNIP3L mRNA, set 1 = 0.218; NDRG1 mRNA, set 1 = 1.42
DOK2 | BNIP3L mRNA, set 1 = 0.0898; NDRG1 mRNA, set 1 = 0.396
DOLK | BNIP3L mRNA, set 1 = 0.266; NDRG1 mRNA, set 1 = 0.502
HTR1B | BNIP3L mRNA, set 1 = 0.209; NDRG1 mRNA, set 1 = 0.742
MCM10 | BNIP3L mRNA, set 1 = 0.222; NDRG1 mRNA, set 1 = 0.277
PATZ1 | BNIP3L mRNA, set 1 = 0.0767; NDRG1 mRNA, set 1 = 0.477
UPF3B | BNIP3L mRNA, set 1 = 0.132; NDRG1 mRNA, set 1 = 0.177
AMY1A | BNIP3L mRNA, set 1 = 0.0961; NDRG1 mRNA, set 1 = 0.135
HSD17B8 | BNIP3L mRNA, set 1 = 0.123; NDRG1 mRNA, set 1 = 0.0582
ZNF701 | BNIP3L mRNA, set 1 = 0.164; NDRG1 mRNA, set 1 = 0.434
PIK3AP1 | BNIP3L mRNA, set 1 = 0.0593; NDRG1 mRNA, set 1 = 0.11
GLG1 | BNIP3L mRNA, set 1 = 0.0641; NDRG1 mRNA, set 1 = 0.113
MYD88 | BNIP3L mRNA, set 1 = 0.0661; NDRG1 mRNA, set 1 = 0.0987
PTPN3 | BNIP3L mRNA, set 1 = 0.0677; NDRG1 mRNA, set 1 = 0.117
STKLD1 | BNIP3L mRNA, set 1 = 0.239; NDRG1 mRNA, set 1 = 0.158
ARX | BNIP3L mRNA, set 1 = 0.0889; NDRG1 mRNA, set 1 = 0.107
EEA1 | BNIP3L mRNA, set 1 = 0.0771; NDRG1 mRNA, set 1 = 0.159
SGSH | BNIP3L mRNA, set 1 = 0.113; NDRG1 mRNA, set 1 = 0.173
CPQ | BNIP3L mRNA, set 1 = 0.16; NDRG1 mRNA, set 1 = 0.839
ASAP1 | BNIP3L mRNA, set 1 = 0.192; NDRG1 mRNA, set 1 = 0.473
CCDC6 | BNIP3L mRNA, set 1 = 0.125; NDRG1 mRNA, set 1 = 0.591
ALG12 | BNIP3L mRNA, set 1 = 0.054; NDRG1 mRNA, set 1 = 0.294
CFAP43 | BNIP3L mRNA, set 1 = 0.08; NDRG1 mRNA, set 1 = 0.189
P2RY8 | BNIP3L mRNA, set 1 = 0.197; NDRG1 mRNA, set 1 = 0.297
DPF1 | BNIP3L mRNA, set 1 = 0.0432; NDRG1 mRNA, set 1 = 0.182
TBC1D22A | BNIP3L mRNA, set 1 = 0.0958; NDRG1 mRNA, set 1 = 0.215
SYTL1 | BNIP3L mRNA, set 1 = 0.196; NDRG1 mRNA, set 1 = 0.172
SSH1 | BNIP3L mRNA, set 1 = 0.0776; NDRG1 mRNA, set 1 = 0.155
H4C6 | BNIP3L mRNA, set 1 = 0.0804; NDRG1 mRNA, set 1 = 0.235
WDR26 | BNIP3L mRNA, set 1 = 0.133; NDRG1 mRNA, set 1 = 0.253
HHLA1 | BNIP3L mRNA, set 1 = 0.229; NDRG1 mRNA, set 1 = 0.053

4 entries already listed, sorted by “BNIP3L mRNA, set 1”, ascending.
PIK3AP1 | BNIP3L mRNA, set 1 = 0.0593; NDRG1 mRNA, set 1 = 0.11
GLG1 | BNIP3L mRNA, set 1 = 0.0641; NDRG1 mRNA, set 1 = 0.113
HSD17B8 | BNIP3L mRNA, set 1 = 0.123; NDRG1 mRNA, set 1 = 0.0582
ZNF701 | BNIP3L mRNA, set 1 = 0.164; NDRG1 mRNA, set 1 = 0.434
